# Primary screen of a compound library

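Whole-cell growth test on Mycobacterium tuberculosis, read after 4 days in a medium based on cholesterol and the lipid DPPC; the read-out is not stated. Tested at 500 µM. The record gives no direction; compounds that gave an IC50 in retests scored well above the rest, so higher reads as more growth inhibition. About 18,000 compounds were tested under these conditions; 5% (about 900) showed 50% or more at least once.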

Results are given as percent effect.
How 0% and 100% were set is not recorded. Most values in the screen are low, and negative values occur.
Compounds were drawn at random from those tested, without regard to their results.

COc1cccc(C2(F)CCNCC2)c1 read 17.23%. CC(C)NC(=O)NCCN(C)C1CCCC1 gave -2.224%. With CCn1cnnc1CC1CCNC1 (stereo not given) the screen gave -31.75%. With CNS(=O)(=O)c1ccc(C(=O)NC2CCSCC2)cc1 the screen gave -30.98%. NCc1nnc(C2CCOC2)[nH]1 (stereo not given) gave -9.793%. With O=C(c1cc(F)ccc1F)N1CCNCC1 the screen gave -2.388%. O=C(NCC1CC1)C1CC12CCNCC2 (stereo not given) read -7.942%.

Cc1cccc(NC(=O)C2CC(=O)N(C(C)(C)C)C2)n1 (stereo not given) gave 18.62%. For Brc1csc(CNCCc2nnc[nH]2)c1 the result was -2.59%. CC(C)[C@@H](CO)NCc1ncn(-c2ccccc2)n1 read 0.7707%. COCc1[nH][nH]c(=O)c1CCN read -2.509%. For CCn1nnc(NCc2ccccc2)n1 the result was 77.76%. For NC1CCCOc2ccc(F)cc21 (stereo not given) the result was 3.926%. For Cc1cc(CCC(=O)NCCC(N)=O)ccc1Br the result was -1.459%.

CCNc1ncc(C(=O)N2CCCc3sccc3C2)s1 read -6.316%. For N[C@H]1CCN(S(=O)(=O)c2ccccc2)C1 the result was 0.3448%. With CC(=O)N1CCC(CNC(=O)Nc2ccc(C)s2)CC1 the screen gave -5.72%. Result for CCO[C@H]1CN(C(=O)c2ccccc2SC)C[C@@H]1O was -8.685%. For COCCn1nc(C(=O)Nc2cc(C)on2)ccc1=O the result was -1.32%. With N#Cc1cccnc1NCc1ccc(CO)c(F)c1 the screen gave 17.37%. CN(C)C(=O)CNc1ccc(OC(C)(C)C)cc1 gave 0.000549%.

CCN(Cc1c(F)cccc1F)S(C)(=O)=O read -6.158%. Result for Cc1ccccc1C(=O)NCCN1CCN(C)CC1 was -0.4615%. NC(=O)Cc1ccc(-c2ccc(C(N)=O)c(Cl)c2)cc1 gave -9.876%. CCOc1ncccc1OCCO read -6.616%. Result for CC(C)OCC(=O)N1C[C@H](C2CC2)[C@@H](N)C1 was -35.06%. Result for O=C1CCc2ccccc2N1Cc1ncccn1 was -1.865%. Cc1nc2ccc(N)cn2n1 gave -234.3%.

O=C(CC(F)(F)F)N1CCCC1c1ccncc1 (stereo not given) gave -1.912%. For CCS(=O)(=O)NCCNS(=O)(=O)c1ccc(C)cc1Cl the result was 14.13%. CCN1CCCN(C(=O)c2ccc(C)c(OC)c2)CC1 read 10.06%. CCN1CCN(CCCOc2ccc(CO)cc2)CC1 read 10.06%. O=C(CN1CCC(CO)CC1)NCC1CCCO1 (stereo not given) read -11.24%. For CS(=O)(=O)c1cccc(Cl)c1C#N the result was -27.61%. For CCC[C@H]1CN(C(=O)CCCn2cccn2)C[C@@H]1N the result was -5.224%.

For CN(CC(=O)NCCC#N)Cc1nc2ccccc2s1 the result was -2.88%. For CC(C)(CC(N)=O)NC(=O)C1CCC(F)(F)CC1 the result was -12.01%. Result for CC[C@H](N)C(=O)N(Cc1cccc(F)c1)C1CC1 was 17.44%. Cn1cnc(S(=O)(=O)NCCc2cccnc2)c1Cl gave -5.336%.

From ChEMBL document CHEMBL3988442, “University of Dundee, Small-Polar-MMV Screening Library” (2021).